# Percent effect of library compounds

Protein sequences, listed by entry. Tags and fused reporters are not part of them. Residues count along the entry.
UniProt Q4DA54, 1-478: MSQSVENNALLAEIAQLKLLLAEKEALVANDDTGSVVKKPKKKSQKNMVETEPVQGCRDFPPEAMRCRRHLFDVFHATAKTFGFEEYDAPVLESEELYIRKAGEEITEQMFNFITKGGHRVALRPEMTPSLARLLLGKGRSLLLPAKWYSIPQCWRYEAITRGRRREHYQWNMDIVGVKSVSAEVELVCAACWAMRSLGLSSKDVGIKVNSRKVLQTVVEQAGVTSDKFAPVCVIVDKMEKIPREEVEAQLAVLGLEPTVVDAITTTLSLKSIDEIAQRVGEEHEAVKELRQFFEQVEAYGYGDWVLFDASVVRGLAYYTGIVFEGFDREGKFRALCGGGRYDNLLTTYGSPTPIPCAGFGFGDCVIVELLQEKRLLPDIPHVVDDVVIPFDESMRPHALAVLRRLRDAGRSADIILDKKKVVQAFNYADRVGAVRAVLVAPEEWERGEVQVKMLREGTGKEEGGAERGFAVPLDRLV

Data taken from ChEMBL document CHEMBL3988442, “University of Dundee, Small-Polar-MMV Screening Library” (2021).

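Histidine-tRNA ligase, Trypanosoma cruzi CL Brener (UniProt Q4DA54). Enzyme assay of histidyl-tRNA synthetase; the read-out is not stated. Concentration: 30 µM. The record gives no direction; compounds that gave an IC50 in retests scored well above the rest, so higher reads as stronger inhibition. Size under these conditions: about 69,000 compounds, about 31 of them at 50% or above in at least one test.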

The filed quantity is “Percent Effect” (%).
The controls that fix the scale are not given in the record; negative values are as filed.
This is an unselected part of the compounds tested.

structure	effect
COc1ccc2nc(C3CC3)cc(C(=O)NCC(=O)N(C)C)c2c1	9.554%
COc1ccc(CN2CC[C@@H](O)[C@@H]2Cc2ccccc2)cc1	1.639%
O[C@@H]1CCN(CC2CCOC2)[C@H]1Cc1cccnc1 (some centres unmarked)	3.681%
Cn1cnc2c1CCN(Cc1nc(COc3ccc(F)cc3)no1)C2	3.788%
CCc1ccc(CN2C[C@@H]3OCCN(c4ccnc(N(C)C)n4)[C@@H]3C2)o1	-0.8264%
COc1cccc(C(C)Nc2ncnc3c2NC(=O)CN3)c1 (centres unmarked)	-1.339%
Cc1cnn(C2CN(Cc3nc(-c4ccsc4)no3)C2)c1	5.747%
c1cc(-c2cnc(NC3CC3)nc2[C@H]2CCCO2)ccn1	9.398%
CN(C)C1CN(C(=O)Nc2cccc(OC(F)F)c2)C1	8.824%
COCC(=O)N[C@H](C)c1c(-c2ccc(OC)cc2)noc1C(=O)O	7.609%
COc1c(CNC2CCOc3ccccc32)c(C)nn1C (centres unmarked)	5.291%
O=C(CCCOc1ccccc1)N1CCCC(n2cncn2)C1 (centres unmarked)	3.226%
CN(Cc1ccsc1)C(=O)CN1CCCC1Cn1cccn1 (centres unmarked)	6.415%
Cc1nc(N2CCN(C(=O)c3ccco3)CC2)c2c(n1)c(C)nn2C	6.087%
COCC(=O)N1Cc2cn(C)nc2C(COc2cccnc2)C1 (centres unmarked)	1.087%
CCCN1CCCn2c(nc(CNC(=O)c3nccn3C)cc2=O)C1	2.674%
c1cncc(CN(CCCn2ccnc2)CC2CCOC2)c1 (centres unmarked)	6.468%
COc1cccc(C(=O)Oc2cc(=O)n3cccc(C)c3n2)c1	4.878%
Cc1ncc(CN2CCOC(c3ccc(-c4ccccc4F)cn3)C2)s1 (centres unmarked)	1.493%
CS(=O)(=O)N1C[C@@H](NC(=O)c2ccno2)[C@@H]2OCCC[C@@H]21	-2.116%
CN(CC(=O)N1CCN(CC(C)(C)O)CC1)c1ccc(Cl)cn1	4.103%
CC(C)n1nc(CN2CCCC2=O)c2c1CN(C(=O)c1ccc[nH]1)C2	-4.42%
CCCC(C(=O)NC1CCN(S(C)(=O)=O)CC1)n1cccc1 (centres unmarked)	4.972%
Cc1nc(CN(C)C2CCN(CCc3ccc4c(c3)CCO4)C2)no1 (centres unmarked)	7.872%
c1ccc(CN2CCc3ncnc(-c4cccnc4)c3CC2)nc1	10.84%
Cc1ccc(C(=O)N2C[C@@H]3OCCN(C)[C@@H]3C2)cn1	18.63%
Cc1nn(C)c(C)c1CN(C(=O)c1cc(Cl)c[nH]c1=O)C(C)C	1.316%
CC(C)N(CC(N)=O)Cc1c(Cl)ccc2cccnc12	3.448%
CN1CCC2(COCCN(Cc3ccc4c(c3)OCO4)C2)C1 (centres unmarked)	3.922%
COc1nc(C)c(C(=O)N2CCc3[nH]nc(C4CCCC4)c3C2)s1	5.155%
Cc1ccc(C(=O)NC2CCN(Cc3nc(C(C)C)no3)CC2)s1	6.726%
CNC(=O)NCC(CO)Cc1cccc(OC(F)(F)F)c1 (centres unmarked)	3.96%
COC(=O)C(NC(=O)c1cc(F)cc(F)c1)c1cccnc1 (centres unmarked)	5.455%
Cc1csc(CNC(=O)Nc2ccc3c(c2)OCO3)n1	6.931%
Cn1ncc2c(=O)[nH]c(CN3CCCC3Cc3ccccc3)nc21 (centres unmarked)	-2.273%
Cc1cc(C2CCCN(CCc3ccc4c(c3)CCO4)C2)n[nH]1 (centres unmarked)	1.493%
CCOCCn1c(=O)n(CCC=C(C)C)c2cc(C(=O)O)cnc21	9.189%
O=C(NCCNc1ccc(C(F)(F)F)cn1)c1ccc(Br)cc1	8.455%
CCc1noc(CN2CCCN(Cc3cccs3)CC2)n1	6.857%
CN(C)S(=O)(=O)N1CCC2(COCc3cnc(-c4cccnc4)nc32)C1 (centres unmarked)	4.233%
O=C1COc2cc(C(=O)N3CCCC(n4cccn4)C3)ccc2N1 (centres unmarked)	6.105%
Cc1csc(N2CCN(CC(=O)Nc3cccnc3)CC2C)n1 (centres unmarked)	2.326%
CN(C)CCOCC1CN(Cc2ccsc2)Cc2nnn(C)c21 (centres unmarked)	1.869%
CC(=O)N1CCc2[nH]c(=O)ccc2C1	4.663%
CC(C)NC(=O)C1CN(C(N)=O)Cc2ccnn2C1 (centres unmarked)	3.784%
CN1CCOC(C(=O)Nc2nnc(Cc3ccc(F)cc3)[nH]2)C1 (centres unmarked)	5.419%
CN(CCO)Cc1nnc(C2CCN(C(=O)c3cc[nH]c3)CC2)n1C	7.821%
O=C(Nc1ccc(F)cc1)C1CNCCN1C(=O)CC1CCCCC1 (centres unmarked)	7.229%
CC(C)n1nc2c(cc1=O)CN(CCOc1ccccc1C#N)CC2	3.727%
Cc1ccc(C(=O)N(C)Cc2cc(C)on2)cn1	3.39%
Cc1nnc2n1CCN(CCS(=O)(=O)c1ccccc1)C2	0%
NC(=O)c1ccnc(N2CCCC(CO)(Cc3ccc(F)cc3)C2)c1 (centres unmarked)	3.478%
CN(C)c1cc2c(nn1)CCN(C(=O)c1cc3c(s1)CCOC3)C2	8.163%
CCC(=O)N1CCC2(COCc3c(C)nc(N(C)C)nc32)C1 (centres unmarked)	3.743%
CC(C)(C)c1cc(CNC(=O)c2cc(COc3ccccc3)[nH]n2)[nH]n1	5.357%
CN(C)C(=O)COC1COC2(CCN(c3cccc(F)c3)CC2)C1 (centres unmarked)	8.867%
O=C(NCC(=O)N1CCCC(n2cncn2)C1)OCc1ccccc1 (centres unmarked)	7.267%
COCCOC1CCN(C(C(=O)O)c2ccc(F)c(Cl)c2)CC1 (centres unmarked)	9.453%
Cn1cccc1C(=O)N1CCC2(CC1)CN(S(C)(=O)=O)c1ccccc12	3.883%
CCn1ccnc1CN1CCN(CCC(=O)NC2CCCCC2)CC1	3.529%
CCCC(C)(O)c1cc(C(N)=O)no1 (centres unmarked)	3.627%
CN(Cc1ccccc1)CC1(O)CCCN(CC(C)(C)C)C1=O (centres unmarked)	0.813%
CCc1cc(CN(C)C(=O)c2cnc3c(c2)nc(N)n3CC)on1	1.293%
Cc1csc(C(C)(C)NCCNS(C)(=O)=O)n1	10.16%
O=C(c1cnccn1)N1CCC(F)(F)C2(CCN(c3ccccn3)C2)C1 (centres unmarked)	3.226%
CCN(CC)Cc1cc(C(=O)N2CCC3(CC2)NCCNC3=O)c(C)o1	6.404%